# Test results from patent publication US7399847 (GENERAL HOSPITAL, dated 2008).
# No constants are given. Whether binding was seen depends on the method and setting. Some entries that bind do so weakly or less than the wild type.
# T1: E-selectin Ig chimera (human) (UniProt P16581)
# T1 sequence (looked up): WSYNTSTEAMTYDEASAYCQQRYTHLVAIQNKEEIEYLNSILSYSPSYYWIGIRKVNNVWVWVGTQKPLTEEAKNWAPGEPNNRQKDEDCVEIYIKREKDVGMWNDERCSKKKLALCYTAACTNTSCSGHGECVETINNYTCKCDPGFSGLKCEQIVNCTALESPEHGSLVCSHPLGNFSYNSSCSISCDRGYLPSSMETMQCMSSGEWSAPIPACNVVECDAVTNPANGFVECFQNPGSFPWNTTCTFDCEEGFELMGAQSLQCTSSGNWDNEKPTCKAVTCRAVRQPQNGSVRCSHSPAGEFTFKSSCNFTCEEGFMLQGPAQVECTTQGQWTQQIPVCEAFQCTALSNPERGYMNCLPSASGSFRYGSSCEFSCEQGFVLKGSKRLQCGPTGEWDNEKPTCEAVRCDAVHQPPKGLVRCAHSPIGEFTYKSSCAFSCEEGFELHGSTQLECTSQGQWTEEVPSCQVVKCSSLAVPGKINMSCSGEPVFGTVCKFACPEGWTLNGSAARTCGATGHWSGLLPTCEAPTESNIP
# Target: T1, E-selectin Ig chimera (human)
# Assay: adhesion of 51Cr-labelled transfected COS cells to immobilized E-selectin Ig
binder,measurement,value
"PSGL-1 residues 38-57 with tyrosines converted to phenylalanine, on the CD43 repeat elements and transmembrane domain (ligand, not shown: small tags and cut ends) RDRRQATEFEFLDFDFLPETITTNSPETSSRTSGAPVTTAASSLETSRGTSGPPLTMATVSLETSKGTSGPPVTMATDSLETSTGTTGPPVTMTTGSLEPSSGASGPQVSS",binding,binds
